According to paper PMC7179226, “Sulfonamide Inhibition Studies of the β-Class Carbonic Anhydrase CAS3 from the Filamentous Ascomycete Sordaria macrospora” (Molecules, 2020):

What was measured:
CAS3 [1] = biological target: T1, CAS3 (Sordaria macrospora, UniProt F7VU04); test: stopped-flow CO2 hydration inhibition assay; assay type: biochemical
T1 construct: gene SMAC_03179; primers imply N-terminus (M)MPVTNEE and C-terminus KTVRVV-LE-His6

CAS3 [2] = biological target: T2, CAS3 (Sordaria macrospora, UniProt F7VU04); test: biochemical; conditions: read-out: KI* (nM) / CAS3 ^c / β
T2 construct: gene SMAC_03179; primers imply N-terminus (M)MPVTNEE and C-terminus KTVRVV-LE-His6
T2 sequence (F7VU04 1-174): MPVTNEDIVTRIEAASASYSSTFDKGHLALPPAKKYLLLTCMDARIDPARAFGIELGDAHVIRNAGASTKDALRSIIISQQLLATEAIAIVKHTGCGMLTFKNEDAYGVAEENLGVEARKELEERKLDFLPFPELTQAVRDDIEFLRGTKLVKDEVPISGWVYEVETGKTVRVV
Protocol: An Applied Photophysics stopped-flow instrument was used for assaying the CA catalyzed CO2 hydration activity. The pH indicator used was bromothymol blue at a concentration of 0.2 mM, working at the absorbance maximum of 557 nm. The buffer used was 20 mM Tris (pH 8.3), and 20 mM Na2SO4 was added to this buffer for maintaining constant the ionic strength (sulfate is not inhibitory and has a KI > 200 mM against this enzyme; data not shown). The initial rates of the CA-catalyzed CO2 hydration were followed for a period of 10–100 s for each assay. The CO2 concentrations ranged from 1.7 to 17 mM for determining kinetic parameters of the reaction and the inhibition constants of tested inhibitors. For each measurement, six traces of the initial 5%–10% of the reaction were used for determining the initial velocity. Then, 10-fold decreasing dilution of inhibitor solutions, ranging from 1 nM and 100 µM were employed for determining the inhibition constants. Uncatalyzed rates were determined in the same manner and subtracted from total observed rates. Stock solutions of inhibitor (0.1 mM) were prepared in distilled deionized water, and dilutions up to 1 nM were done thereafter with the assay buffer. […] The inhibition constants measured by this method are in excellent agreement with the dissociation constants measured by native mass spectrometry.

SMILES | Ki (CAS3 [1]) [nM] | Ki (CAS3 [2]) [nM]
Nc1ccc(S(N)(=O)=O)cc1 [compound 1, sulfanilamide] | 90 ± 7.1 | –
Nc1ccc(S(N)(=O)=O)cc1 [compound 2] | – | 84 ± 5.6
